In the supplement of paper PMC6445147:
Single values of this data set are uncertain.

B1: human tRNA-Pro; a variant is named by its letters at N, in order (parent)
chain: GGCTCGTTGGTCTAGNGGTATGATTCTCGCTTAGGGTGCGAGAGGTCCCGGGTTCNNATCCCGGACGAGCCC

Variants of: B1
Assay: tRNA 5' processing efficiency (processed reads / all reads, maximum-likelihood estimate) (fraction); higher = more efficient 5' processing
Conditions: HEK293T; construct: CMV Pol-II promoter ((+)CMV library, decapped)

Variant | tRNA 5' processing efficiency
GAG G17T T53G T59A | 0.29
GAA G18C T53A A58T | 0.33
GAA A14T T19A A58T | 0.33
GTA A14T T53C A58T | 0.6
GAA G18T T54A | 0.25
GAA G17C G18T T19A T53G T54A | 0.2
GAG G17A A20T | 0.5
GAG A14G G17A G18T T19G A20G C55G | 0.25
GAT T8C G17A T53C | 0.5
GAC T19C T54G C55G | 0.33
GAA T8G G17T A58G | 0.33
GAA G9C A20T | 0.33
GAA G9C A14G G18T A20G C55G A58G | 0.25
GGG A58C | 0.77
GAA T8G G17T | 0.22
GAA G9C G18T T53G C55T A58T T59G | 0.33
GAA T8G G17T A20T C55A | 0.13
CAC T8G G9T C55G | 0.5
GGA G9C G15C | 0.33
GAC G15A G17C A20G | 0.2
GAA T8A G18C A58G | 0.25
GAG G9C G17A A20T T54G C55A | 0.25
TAC C55A A58T | 0.25
GAA T8A G15C T53A | 0.33

As entered above:
Entry for GGA G9C G15C under tRNA 5' processing efficiency: 0.33
Entry for GAC G15A G17C A20G under tRNA 5' processing efficiency: 0.2
Entry for CAC T8G G9T C55G under tRNA 5' processing efficiency: 0.5
Entry for GAA A14T T19A A58T under tRNA 5' processing efficiency: 0.33
Entry for GAA G9C A14G G18T A20G C55G A58G under tRNA 5' processing efficiency: 0.25

Later entries

Variant | tRNA 5' processing efficiency
GAA G9C A14G G17T G18T T54C | 0.25
GAA A20G G38A | 0.25
GAA A14G A20G A58G | 0.25
GAA A14C A20C T53G A58T | 0.25
GTA G15C G18A T59C | 0.09
GAC G18A T19C T54A | 0.33
GAA T8C G9T G15A G17T T53A A58T | 0.2
CTA G9C | 0.25
GCA A20T T53C | 0.33
GTA A20T T59G | 0.33
GAA G18T A20C A58C | 0.11
GTA A14T G18T C55G | 0.33
GAA T8C A14C T59A | 0.4
GAT G15T G18T T19A A20T | 0.17
GAA G15C A20T C55G A58T | 0.2
GAA T8G G15C G17T G18T C55T | 0.11
GAA A20T T54C | 0.33
AAG G18A T53G | 0.67
GAA A14C G18C T19A A20T | 0.2
GGA A14C T53A A58T T59G | 0.2
TTA T53G | 0.62
CAA G15C C55G A58T | 0.33
GAA T8A G9A A14G G18T A20C T53A | 0.25
AAG T19A A20T C55A | 0.33

Variant | tRNA 5' processing efficiency
TAT G15A A58G | 0.25
GAC G9T G17A C55T | 0.33
GAA T8G T19G T59G | 0.25
GAA T8A G9C G18C A20T T53G | 0.25
GAC A14G G17A G18C | 0.33
GAA T8G C55T A58G | 0.4
GAT G9T G15A G17C | 0.25
GAC G17T A20T | 0.13
GAG G9A G17C A20T | 0.33
TAA T19G T53C | 0.25
GAA T8G G18T A20C T59C | 0.06
GAA T19G T54A A58G | 0.33
GAC T8A C55T | 0.2
GAA G9A G15T C55T | 0.33
GGA G15A T59C | 0.25
GTC A58T | 0.25
GAC A14T G15C A58T | 0.29
GAA T8C G17C T53A C55T T59A | 0.5
GAA G15T T19G C55T A58G T59G | 0.17
TGA A14G T59A | 0.33
GAC T19C T53A T59C | 0.33
GAA G17A T19C T53C | 0.33
GAA G17A T19A C55T | 0.25
GAA G15T T19A A20G | 0.25

Variant | tRNA 5' processing efficiency
CAG T53G | 0.33
TTA G15A T54C | 0.17
GAG G18T A20G T53C T54G A58C | 0.25
GAA T8A T54C | 0.25
GTA G9A G17A G18A T53A | 0.33
CAA T19A T54A | 0.17
GGA T19A C55T | 0.17
GAA A20T C55A | 0.5
GTG G9T G18A T53G A58T | 0.25
TAA G15T A20C T54A C55T | 0.13
GTA G9A G18C T54C | 0.07
GAT A20T A58C | 0.2
GAA T53G T59G | 0.29
GAT G15C G18T T54G | 0.33
GAA G9C A14G T53A T54C C55G | 0.2
GAT T8A G17C G18T T54G | 0.2
ACA G9A A14G G15C G17T A20T C55G | 0.08
GAG T8A A14G G35A | 0.25
AGA G9A A14G T54G A58C T59G | 0.25
GAC A14G G15C G18T | 0.33
GAA G9C G15T T53G C55T | 0.2
GAA A14G G18T A20G T53A T59G | 0.13
GCA G9C T19A T59C | 0.33
AGT A14C | 0.33

Variant | tRNA 5' processing efficiency
GTA T8C G15C C55G T59A | 0.13
AGA T53C A58C | 0.5
GAT T8A G15A T19G | 0.18
AAA G15A G18T T53A T59G | 0.4
GAA T53G T54A A58T | 0.4
TAA G15A G18C C55A | 0.25
TCA T8G G9T G15A C55T T59C | 0.33
GAG T8C T59A | 0.11
GAC T19C A20C C62T | 0.33
GAA G15A T19G C55G | 0.43
TAA T8A A14T T19A C55A | 0.4
GAA G18T T53G T59G | 0.5
GAA T19G A58C | 0.33
AGC A14C A20T | 0.43
GTG T19G T53C | 0.2
GCA A14T A20T | 0.18
GAA G15T G17T T54A A58C T59C | 0.17
GAA A14T G18A T19G | 0.2
GAA A14G T19A A20G C55A | 0.5
GAA G15A T54A A58T | 0.2
TTA T8C G17C | 0.33
GAA G9C G18A A20T C55G | 0.25
GAA T53C C55T | 0.2
GGA G18T T53A | 0.38

Variant | tRNA 5' processing efficiency
GAA T8G G18C T53A | 0.17
GAA T8C G18T T19C A20T T53G A58T T59C | 0.33
GTA G17A T19C C55G | 0.25
GAA A14T G17C T53A A58T T59C | 0.25
GAA G17T G18T T54A A58T | 0.1
GAG G15C A20C | 0.25
TAA G15A A20T T53A | 0.18
GCA A41G | 0.25
GAT G9A A58G T59C | 0.5
GAA A14T T19A T54G | 0.25
GTA G9T G17C G18A A20T C55T | 0.25
GAT G15T G17C A20C | 0.25
GAT G2A A14G G15A T19A T54C C55A T59G | 0.25
GAA T8C G15T T53C | 0.25
AAA T8A A20T | 0.5
CAA G15C | 0.2
GTA G15C G17C T59G | 0.2
GGG G15T G17A C55A | 0.08
GAC T8A G15A | 0.4
AAG T8G G18T A20G | 0.4
GTA T8G G9T A14T T19A | 0.25
GAA G15A T19A T54A C55A | 0.25
GAT G9A G17A T19A A20T | 0.5
GAA G17C A20G | 0.1

Variant | tRNA 5' processing efficiency
GAA C55T A58T T59A | 0.17
GAT T19G A58C T59C | 0.25
GAA G17A C55T | 0.4
CAA T54G C55T T59G | 0.14
GAA T53C T54A | 0.2
GAA G18T T53G T54A | 0.2
GAA T8A T19A A58C | 0.25
GTA G9C A14G G15A C55A | 0.25
GAA G15C T54G | 0.3
GAA T8A G15A T53G T54A | 0.25
CAA T54C | 0.2
TAA G15T T19G T54C T59G | 0.14
GAC G15A G18C A20G | 0.14
GAG T8C G15T G18T | 0.58
AAG G17T | 0.4
GAC G9T A14G T19C T53A | 0.33
GAA G15T T53G | 0.5
TAA G9C G17T T59G | 0.17
GAA G17T C55T | 0.14
GAA A20C T54C | 0.33
GGA T54G | 0.29
CAA G9T T19C A20G | 0.33
GGA G15T C55T A58G | 0.25
